According to publication PMC6010127, “Sulfonamide inhibition studies of two β-carbonic anhydrases from the ascomycete fungus Sordaria macrospora, CAS1 and CAS2” (Journal of Enzyme Inhibition and Medicinal Chemistry, 2018):

Assays:
CAS2 = target: T1, CAS2 (Sordaria macrospora, UniProt C1L336); assay: stopped-flow CO2 hydration assay; assay type: biochemical; conditions: read-out: KI^a (nM) / CAS2^c / β
T1 construct: recombinant, obtained in-house
T1 sequence (C1L336 54-284): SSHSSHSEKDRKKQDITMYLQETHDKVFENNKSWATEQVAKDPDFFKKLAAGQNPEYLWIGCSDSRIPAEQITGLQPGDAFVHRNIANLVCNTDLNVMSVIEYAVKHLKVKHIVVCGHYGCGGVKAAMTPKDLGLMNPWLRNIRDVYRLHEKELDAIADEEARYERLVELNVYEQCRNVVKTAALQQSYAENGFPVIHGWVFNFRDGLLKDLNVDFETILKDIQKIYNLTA
Description: stopped-flow CO2 hydration assay on CAS2

CAS1 = target: T2, CAS1 (Sordaria macrospora, UniProt F7VW42); assay: stopped-flow CO2 hydration assay; assay type: biochemical
T2 construct: gene SMAC_03420; recombinant, obtained in-house
T2 sequence (F7VW42 1-234): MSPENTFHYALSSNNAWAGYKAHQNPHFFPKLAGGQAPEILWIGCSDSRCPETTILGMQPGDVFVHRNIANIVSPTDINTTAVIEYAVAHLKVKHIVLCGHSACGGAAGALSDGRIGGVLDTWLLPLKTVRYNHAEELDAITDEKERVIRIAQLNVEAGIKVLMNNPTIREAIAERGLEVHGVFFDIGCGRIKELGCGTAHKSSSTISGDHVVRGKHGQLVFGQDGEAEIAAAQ

## CCN[C@H]1C[C@H](C)S(=O)(=O)c2sc(S(N)(=O)=O)cc21 [DZA, dorzolamide]
CAS2
  Ki: 742 nM
CAS1
  Ki: 360 nM
